Experimental data: PMC9988257
These are yes or no findings as the source states them, for the method shown. In cells and extracts the contact can be indirect. Some binding calls cover weakened binding; strength is not graded here. For some assays here: Where a sequence is shown, tags or fusion partners need not be part of it. Each block holds one substance with its values, some of them ahead of it.

By UniProt entry, the sequences of proteins in these tests, tags left out.
UniProt Q9UPT5: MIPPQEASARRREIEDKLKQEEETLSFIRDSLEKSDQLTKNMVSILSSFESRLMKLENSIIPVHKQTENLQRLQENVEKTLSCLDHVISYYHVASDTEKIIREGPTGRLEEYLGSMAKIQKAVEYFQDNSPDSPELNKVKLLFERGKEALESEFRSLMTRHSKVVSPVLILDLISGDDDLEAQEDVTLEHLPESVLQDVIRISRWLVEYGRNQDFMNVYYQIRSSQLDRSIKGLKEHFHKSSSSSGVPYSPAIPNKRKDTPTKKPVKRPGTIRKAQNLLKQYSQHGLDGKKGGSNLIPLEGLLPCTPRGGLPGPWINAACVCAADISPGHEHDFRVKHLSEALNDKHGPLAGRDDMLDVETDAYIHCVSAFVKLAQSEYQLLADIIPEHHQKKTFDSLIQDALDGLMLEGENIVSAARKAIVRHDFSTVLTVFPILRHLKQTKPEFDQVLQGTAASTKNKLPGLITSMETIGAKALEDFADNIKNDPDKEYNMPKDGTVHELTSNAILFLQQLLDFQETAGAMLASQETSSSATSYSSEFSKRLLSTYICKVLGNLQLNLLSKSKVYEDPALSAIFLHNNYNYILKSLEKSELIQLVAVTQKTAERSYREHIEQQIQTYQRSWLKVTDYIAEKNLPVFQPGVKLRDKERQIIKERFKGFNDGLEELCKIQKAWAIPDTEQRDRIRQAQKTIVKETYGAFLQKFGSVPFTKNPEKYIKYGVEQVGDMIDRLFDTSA
UniProt Q6KAR6: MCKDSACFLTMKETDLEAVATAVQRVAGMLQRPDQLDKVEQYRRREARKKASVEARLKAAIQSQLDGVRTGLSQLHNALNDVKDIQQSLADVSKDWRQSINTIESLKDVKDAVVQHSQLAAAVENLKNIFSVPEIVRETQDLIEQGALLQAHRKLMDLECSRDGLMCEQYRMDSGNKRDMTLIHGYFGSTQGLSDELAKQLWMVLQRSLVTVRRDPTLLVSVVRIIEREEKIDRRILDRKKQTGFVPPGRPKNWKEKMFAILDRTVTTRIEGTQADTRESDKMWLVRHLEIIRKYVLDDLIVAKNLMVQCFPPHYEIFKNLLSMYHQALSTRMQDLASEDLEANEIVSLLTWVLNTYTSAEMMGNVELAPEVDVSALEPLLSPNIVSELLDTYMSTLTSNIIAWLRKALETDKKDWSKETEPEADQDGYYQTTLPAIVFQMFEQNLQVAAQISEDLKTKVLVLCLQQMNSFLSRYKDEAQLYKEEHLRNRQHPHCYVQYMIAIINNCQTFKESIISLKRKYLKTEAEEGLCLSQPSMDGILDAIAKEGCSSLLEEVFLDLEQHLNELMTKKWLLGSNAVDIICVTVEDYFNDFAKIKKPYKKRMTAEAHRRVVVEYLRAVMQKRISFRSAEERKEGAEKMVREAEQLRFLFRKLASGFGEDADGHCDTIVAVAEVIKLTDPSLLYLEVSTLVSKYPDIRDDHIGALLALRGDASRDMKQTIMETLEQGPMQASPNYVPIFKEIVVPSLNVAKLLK
UniProt Q3TPX4: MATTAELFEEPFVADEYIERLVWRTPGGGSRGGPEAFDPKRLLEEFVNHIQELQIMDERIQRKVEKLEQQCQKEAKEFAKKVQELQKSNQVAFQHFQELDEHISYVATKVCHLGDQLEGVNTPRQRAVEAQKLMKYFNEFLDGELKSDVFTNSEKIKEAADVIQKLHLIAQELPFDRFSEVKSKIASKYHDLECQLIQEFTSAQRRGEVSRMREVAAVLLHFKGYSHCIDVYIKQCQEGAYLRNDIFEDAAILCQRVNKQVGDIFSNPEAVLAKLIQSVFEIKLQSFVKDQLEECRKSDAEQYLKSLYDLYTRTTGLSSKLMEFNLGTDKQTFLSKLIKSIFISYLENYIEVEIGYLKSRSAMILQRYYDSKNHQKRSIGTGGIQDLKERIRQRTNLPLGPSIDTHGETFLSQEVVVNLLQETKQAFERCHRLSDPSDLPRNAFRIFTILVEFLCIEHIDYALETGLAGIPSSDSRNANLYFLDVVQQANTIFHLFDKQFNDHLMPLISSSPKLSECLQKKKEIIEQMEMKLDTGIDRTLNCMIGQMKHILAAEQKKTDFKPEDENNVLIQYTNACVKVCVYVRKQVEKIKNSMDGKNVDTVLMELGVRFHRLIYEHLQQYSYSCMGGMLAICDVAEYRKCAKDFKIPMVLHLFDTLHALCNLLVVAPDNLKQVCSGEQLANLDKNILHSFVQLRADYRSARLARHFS
UniProt Q96A65: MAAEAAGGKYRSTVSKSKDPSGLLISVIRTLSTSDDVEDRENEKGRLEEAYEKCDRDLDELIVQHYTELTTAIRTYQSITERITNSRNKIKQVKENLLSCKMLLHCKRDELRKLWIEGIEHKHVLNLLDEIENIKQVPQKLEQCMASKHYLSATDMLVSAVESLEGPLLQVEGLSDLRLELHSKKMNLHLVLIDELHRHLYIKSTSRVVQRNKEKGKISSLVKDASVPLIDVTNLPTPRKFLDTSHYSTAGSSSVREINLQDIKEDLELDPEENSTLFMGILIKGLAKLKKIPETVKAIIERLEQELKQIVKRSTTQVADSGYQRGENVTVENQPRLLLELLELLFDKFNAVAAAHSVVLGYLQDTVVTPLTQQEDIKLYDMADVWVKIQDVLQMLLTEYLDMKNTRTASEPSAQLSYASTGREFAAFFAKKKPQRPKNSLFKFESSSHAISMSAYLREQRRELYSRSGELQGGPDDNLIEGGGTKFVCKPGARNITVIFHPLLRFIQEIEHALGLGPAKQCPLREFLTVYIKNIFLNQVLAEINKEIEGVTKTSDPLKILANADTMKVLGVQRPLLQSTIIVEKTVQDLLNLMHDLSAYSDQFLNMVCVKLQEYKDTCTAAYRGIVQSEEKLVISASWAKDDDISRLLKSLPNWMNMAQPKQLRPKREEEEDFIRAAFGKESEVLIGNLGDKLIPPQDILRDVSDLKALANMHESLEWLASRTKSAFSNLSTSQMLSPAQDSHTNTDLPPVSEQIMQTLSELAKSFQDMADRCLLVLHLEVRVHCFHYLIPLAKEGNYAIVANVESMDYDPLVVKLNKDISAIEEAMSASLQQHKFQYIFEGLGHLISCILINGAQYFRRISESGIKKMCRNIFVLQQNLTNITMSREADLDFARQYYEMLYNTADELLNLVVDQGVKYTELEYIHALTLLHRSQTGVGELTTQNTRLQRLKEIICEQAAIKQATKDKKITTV
UniProt Q9EQZ7: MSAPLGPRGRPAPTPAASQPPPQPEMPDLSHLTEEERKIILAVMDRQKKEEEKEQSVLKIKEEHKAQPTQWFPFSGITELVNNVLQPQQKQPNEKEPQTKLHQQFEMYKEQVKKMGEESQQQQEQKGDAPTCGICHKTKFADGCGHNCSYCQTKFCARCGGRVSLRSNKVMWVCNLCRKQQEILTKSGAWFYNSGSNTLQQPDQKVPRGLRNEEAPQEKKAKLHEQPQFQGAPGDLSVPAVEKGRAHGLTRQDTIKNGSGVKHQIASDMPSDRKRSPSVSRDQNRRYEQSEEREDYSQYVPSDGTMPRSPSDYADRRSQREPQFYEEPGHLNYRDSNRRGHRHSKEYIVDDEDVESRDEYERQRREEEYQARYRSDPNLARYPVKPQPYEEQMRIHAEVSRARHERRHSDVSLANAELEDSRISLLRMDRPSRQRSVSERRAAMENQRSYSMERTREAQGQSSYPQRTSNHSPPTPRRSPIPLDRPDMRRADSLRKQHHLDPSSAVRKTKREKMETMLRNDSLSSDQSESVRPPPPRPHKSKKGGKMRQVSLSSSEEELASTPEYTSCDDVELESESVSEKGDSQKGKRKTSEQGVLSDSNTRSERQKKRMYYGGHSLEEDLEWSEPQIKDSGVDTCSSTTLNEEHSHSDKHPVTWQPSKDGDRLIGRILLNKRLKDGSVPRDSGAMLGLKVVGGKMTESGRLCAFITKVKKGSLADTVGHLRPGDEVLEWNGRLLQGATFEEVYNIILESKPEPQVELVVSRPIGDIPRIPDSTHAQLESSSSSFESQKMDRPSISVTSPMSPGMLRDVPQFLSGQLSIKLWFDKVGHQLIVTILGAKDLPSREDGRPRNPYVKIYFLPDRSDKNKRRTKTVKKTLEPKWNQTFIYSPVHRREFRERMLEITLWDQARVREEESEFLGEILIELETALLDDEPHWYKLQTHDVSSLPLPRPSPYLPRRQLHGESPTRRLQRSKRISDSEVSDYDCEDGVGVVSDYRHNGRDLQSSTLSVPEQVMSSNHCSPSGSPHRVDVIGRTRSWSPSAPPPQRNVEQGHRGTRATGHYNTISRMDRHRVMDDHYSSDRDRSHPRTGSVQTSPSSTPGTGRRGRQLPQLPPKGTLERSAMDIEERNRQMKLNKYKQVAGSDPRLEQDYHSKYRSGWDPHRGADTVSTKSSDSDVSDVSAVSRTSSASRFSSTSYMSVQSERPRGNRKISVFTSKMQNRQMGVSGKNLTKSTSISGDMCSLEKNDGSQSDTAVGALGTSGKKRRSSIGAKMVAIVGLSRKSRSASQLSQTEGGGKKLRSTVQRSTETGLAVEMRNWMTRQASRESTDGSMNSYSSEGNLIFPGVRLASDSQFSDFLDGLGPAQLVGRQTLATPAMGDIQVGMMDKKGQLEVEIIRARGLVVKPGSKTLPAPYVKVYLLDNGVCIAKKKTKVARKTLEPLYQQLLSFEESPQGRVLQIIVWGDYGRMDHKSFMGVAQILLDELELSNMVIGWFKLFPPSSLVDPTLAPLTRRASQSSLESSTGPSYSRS

Tests used:
[1] = target: T1, mCherry-fused melanophilin (expressed in HEK293A cells) (mouse) (UniProt Q91V27); assay: co-IP; visible immunoprecipitation (VIP) assay: HEK293A cells co-transfected with mCherry-fused effector and EGFP-fused exocyst component; lysates precipitated with mCherry-nanobody-bound glutathione-Sepharose beads; EGFP and mCherry fluorescence on beads seen by confocal microscopy
T1 sequence: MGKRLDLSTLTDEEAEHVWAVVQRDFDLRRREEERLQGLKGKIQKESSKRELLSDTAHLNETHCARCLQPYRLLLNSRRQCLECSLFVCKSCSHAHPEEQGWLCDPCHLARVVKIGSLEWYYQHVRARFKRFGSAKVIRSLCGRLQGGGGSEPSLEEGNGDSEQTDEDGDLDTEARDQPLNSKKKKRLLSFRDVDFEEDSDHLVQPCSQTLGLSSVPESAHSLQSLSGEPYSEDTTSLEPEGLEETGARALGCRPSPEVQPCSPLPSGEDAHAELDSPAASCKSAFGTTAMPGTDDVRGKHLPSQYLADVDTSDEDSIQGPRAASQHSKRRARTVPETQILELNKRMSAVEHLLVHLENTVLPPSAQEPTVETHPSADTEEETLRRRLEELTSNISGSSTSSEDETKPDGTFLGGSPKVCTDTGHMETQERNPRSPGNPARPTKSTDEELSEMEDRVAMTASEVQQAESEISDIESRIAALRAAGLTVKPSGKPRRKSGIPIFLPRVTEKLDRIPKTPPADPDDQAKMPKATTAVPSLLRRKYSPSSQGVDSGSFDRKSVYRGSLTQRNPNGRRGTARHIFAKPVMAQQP

[2] = target: T2, mCherry-fused exophilin-8 (expressed in HEK293A cells) (mouse) (UniProt Q8K3I4); assay: as above
T2 sequence: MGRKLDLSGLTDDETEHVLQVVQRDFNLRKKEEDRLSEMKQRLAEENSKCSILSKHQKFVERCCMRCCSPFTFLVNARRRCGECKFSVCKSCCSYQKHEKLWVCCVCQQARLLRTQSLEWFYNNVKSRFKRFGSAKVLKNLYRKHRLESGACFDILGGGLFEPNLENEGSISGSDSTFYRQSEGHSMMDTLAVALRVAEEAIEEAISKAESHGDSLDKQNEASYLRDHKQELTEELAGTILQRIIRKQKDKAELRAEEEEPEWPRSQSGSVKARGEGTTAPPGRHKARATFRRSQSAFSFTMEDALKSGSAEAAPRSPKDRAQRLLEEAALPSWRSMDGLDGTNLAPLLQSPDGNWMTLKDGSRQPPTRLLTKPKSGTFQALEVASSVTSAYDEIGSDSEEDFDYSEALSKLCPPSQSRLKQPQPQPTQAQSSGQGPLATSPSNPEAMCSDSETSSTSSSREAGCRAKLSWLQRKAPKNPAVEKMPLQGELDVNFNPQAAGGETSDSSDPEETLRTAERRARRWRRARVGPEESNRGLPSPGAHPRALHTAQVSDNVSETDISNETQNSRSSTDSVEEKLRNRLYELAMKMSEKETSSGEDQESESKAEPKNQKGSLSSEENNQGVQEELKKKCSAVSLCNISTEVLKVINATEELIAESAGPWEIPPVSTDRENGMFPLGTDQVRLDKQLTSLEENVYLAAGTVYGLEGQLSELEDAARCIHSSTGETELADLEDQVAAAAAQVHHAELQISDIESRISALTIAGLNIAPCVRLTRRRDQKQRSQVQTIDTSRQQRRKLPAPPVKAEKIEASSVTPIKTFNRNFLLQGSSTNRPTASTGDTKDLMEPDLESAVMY

[3] = target: T3, FLAG-tagged exophilin-8 (expressed in MIN6 cells) (mouse) (UniProt Q8K3I4); assay: co-IP; MIN6 cells expressing FLAG-tagged melanophilin or exophilin-8; immunoprecipitated with anti-FLAG antibody; immunoblotted for endogenous proteins
T3 sequence: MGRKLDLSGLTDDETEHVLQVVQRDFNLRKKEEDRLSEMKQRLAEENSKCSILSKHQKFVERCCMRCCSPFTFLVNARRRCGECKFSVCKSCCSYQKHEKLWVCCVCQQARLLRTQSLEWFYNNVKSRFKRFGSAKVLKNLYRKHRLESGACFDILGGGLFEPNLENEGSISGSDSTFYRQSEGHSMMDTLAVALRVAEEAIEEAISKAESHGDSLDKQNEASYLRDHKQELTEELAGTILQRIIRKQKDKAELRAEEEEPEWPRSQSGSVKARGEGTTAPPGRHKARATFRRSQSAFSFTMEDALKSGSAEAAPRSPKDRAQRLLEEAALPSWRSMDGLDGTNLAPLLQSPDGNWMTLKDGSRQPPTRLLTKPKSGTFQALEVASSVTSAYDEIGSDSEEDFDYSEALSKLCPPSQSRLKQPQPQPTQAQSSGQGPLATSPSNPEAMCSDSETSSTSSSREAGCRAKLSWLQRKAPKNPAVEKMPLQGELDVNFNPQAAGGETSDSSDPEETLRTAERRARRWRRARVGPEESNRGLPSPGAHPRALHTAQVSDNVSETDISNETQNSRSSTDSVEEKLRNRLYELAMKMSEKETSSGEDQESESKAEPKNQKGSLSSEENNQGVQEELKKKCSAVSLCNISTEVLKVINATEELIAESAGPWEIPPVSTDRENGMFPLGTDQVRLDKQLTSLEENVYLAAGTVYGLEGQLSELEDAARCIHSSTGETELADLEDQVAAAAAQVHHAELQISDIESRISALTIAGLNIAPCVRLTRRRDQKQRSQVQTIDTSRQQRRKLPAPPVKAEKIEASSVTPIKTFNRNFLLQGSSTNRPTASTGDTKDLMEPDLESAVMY

[4] = target: T4, melanophilin (endogenous, MIN6 cells) (mouse (endogenous in MIN6)) (UniProt Q91V27); assay: co-IP; endogenous proteins; MIN6 cell extracts immunoprecipitated with rabbit anti-melanophilin antibody or control IgG and immunoblotted (Figure 3C; control siRNA of Figure 4B)
T4 sequence: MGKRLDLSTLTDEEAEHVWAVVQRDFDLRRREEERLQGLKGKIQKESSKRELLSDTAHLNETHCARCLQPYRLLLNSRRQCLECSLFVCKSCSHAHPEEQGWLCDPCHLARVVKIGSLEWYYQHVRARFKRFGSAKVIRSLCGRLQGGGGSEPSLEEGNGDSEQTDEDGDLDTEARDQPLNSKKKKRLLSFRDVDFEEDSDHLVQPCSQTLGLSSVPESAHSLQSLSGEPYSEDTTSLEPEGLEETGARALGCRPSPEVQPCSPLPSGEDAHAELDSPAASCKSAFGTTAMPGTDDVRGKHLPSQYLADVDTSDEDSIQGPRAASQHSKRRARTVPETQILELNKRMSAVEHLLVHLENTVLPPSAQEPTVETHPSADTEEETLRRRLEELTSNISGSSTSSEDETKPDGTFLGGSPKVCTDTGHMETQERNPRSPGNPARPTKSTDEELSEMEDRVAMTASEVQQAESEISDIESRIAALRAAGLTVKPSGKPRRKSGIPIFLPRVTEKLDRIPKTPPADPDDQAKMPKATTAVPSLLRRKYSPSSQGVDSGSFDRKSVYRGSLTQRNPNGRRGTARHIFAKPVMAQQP

Substance: EGFP-fused EXO70 (human, expressed in HEK293A cells) (from UniProt Q9UPT5 1-735)
binding [1]: binds

Substance: SEC6 (endogenous, MIN6 cells) (from UniProt Q6KAR6 1-755)
binding [4]: binds

Substance: SEC10 (endogenous, MIN6 cells) (from UniProt Q3TPX4 1-708)
binding [4]: binds

Now from value to substance:

binding [2]: binds
Substance: EGFP-fused SEC8 (human, expressed in HEK293A cells) (from UniProt Q96A65 1-974)

binding [3]: binds
Substance: RIM2 (endogenous, MIN6 cells) (from UniProt Q9EQZ7 1-1530)
